Reference: the supplement of paper PMC12823440, “Inhibitors supercharge kinase turnover through native proteolytic circuits” (Nature, 2025)
Where a name gives a salt, the structure may show the parent alone. Some of the results follow. The calls rarely recur for the same compound in another form.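 Kinases, fused to nanoluciferase, were expressed in K562 cells; luminescence was measured every 4 h from 2 to 18 h as percent of control (DMSO = 100%, positive control = 0%). A time point is decreased if signal falls significantly (2 sigma). Hits were called by the authors by a rule that is not shown; the count of time points alone does not decide it.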

Amino acid sequences for entries named in this document (tags omitted). A change or cut given only in a name is not applied to a line headed by its entry.
UniProt Q15303, whole entry R711C: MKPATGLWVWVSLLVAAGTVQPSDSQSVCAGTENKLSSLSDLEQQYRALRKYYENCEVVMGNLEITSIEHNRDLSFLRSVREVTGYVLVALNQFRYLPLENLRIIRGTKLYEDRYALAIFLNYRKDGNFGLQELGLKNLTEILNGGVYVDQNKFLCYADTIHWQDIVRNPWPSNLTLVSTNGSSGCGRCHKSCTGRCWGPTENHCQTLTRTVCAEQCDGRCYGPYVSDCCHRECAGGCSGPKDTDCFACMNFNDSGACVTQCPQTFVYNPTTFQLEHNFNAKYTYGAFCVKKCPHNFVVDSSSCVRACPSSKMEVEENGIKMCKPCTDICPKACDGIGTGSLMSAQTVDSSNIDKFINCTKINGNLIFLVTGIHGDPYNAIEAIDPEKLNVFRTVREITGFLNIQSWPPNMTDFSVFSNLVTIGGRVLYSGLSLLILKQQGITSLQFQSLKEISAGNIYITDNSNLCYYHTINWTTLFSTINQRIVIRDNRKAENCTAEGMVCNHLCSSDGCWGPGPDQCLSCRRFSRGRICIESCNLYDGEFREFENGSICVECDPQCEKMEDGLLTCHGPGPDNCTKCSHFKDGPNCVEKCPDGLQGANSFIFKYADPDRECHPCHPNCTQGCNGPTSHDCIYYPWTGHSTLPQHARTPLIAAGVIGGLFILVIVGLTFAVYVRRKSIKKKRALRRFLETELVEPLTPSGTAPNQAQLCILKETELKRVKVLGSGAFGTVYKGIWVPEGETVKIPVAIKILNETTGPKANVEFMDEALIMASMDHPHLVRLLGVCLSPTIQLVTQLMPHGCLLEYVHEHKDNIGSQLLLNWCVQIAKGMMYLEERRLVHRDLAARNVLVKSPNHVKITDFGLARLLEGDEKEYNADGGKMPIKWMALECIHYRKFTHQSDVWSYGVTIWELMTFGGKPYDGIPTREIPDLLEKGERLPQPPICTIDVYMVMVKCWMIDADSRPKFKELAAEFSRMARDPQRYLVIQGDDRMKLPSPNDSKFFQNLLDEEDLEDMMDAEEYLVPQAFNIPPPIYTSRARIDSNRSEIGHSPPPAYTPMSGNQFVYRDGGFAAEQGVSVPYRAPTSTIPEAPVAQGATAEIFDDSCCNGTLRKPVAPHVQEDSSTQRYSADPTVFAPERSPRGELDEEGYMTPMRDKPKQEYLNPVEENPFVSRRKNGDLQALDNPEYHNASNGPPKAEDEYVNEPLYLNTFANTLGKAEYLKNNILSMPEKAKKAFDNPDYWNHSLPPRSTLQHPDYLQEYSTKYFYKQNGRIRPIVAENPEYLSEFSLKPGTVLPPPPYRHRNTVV
UniProt O75460: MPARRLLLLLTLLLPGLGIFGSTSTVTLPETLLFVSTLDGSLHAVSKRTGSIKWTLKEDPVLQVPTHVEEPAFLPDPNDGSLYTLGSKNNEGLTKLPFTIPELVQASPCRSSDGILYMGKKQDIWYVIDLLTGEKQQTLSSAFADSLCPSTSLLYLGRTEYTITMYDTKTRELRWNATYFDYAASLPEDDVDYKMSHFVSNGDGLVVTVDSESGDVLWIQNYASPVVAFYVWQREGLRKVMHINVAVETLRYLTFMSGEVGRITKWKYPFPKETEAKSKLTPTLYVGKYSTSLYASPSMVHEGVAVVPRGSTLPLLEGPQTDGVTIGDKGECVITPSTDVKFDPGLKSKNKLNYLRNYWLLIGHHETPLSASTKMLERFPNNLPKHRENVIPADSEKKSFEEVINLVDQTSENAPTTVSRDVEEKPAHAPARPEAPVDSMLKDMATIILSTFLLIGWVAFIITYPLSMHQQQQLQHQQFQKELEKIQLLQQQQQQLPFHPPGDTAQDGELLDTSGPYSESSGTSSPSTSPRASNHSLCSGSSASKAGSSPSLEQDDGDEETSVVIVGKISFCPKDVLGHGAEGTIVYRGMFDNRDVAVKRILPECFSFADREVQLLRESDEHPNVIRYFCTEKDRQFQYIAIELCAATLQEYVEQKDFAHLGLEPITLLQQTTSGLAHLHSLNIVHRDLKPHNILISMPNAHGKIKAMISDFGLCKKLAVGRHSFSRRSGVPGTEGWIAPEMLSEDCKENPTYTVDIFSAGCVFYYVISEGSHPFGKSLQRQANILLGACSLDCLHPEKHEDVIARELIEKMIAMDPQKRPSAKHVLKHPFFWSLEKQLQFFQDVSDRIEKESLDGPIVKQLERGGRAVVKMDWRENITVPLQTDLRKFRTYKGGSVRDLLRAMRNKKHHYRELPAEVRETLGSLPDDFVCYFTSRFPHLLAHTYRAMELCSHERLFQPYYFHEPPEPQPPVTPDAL
UniProt P21802, whole entry, looked up: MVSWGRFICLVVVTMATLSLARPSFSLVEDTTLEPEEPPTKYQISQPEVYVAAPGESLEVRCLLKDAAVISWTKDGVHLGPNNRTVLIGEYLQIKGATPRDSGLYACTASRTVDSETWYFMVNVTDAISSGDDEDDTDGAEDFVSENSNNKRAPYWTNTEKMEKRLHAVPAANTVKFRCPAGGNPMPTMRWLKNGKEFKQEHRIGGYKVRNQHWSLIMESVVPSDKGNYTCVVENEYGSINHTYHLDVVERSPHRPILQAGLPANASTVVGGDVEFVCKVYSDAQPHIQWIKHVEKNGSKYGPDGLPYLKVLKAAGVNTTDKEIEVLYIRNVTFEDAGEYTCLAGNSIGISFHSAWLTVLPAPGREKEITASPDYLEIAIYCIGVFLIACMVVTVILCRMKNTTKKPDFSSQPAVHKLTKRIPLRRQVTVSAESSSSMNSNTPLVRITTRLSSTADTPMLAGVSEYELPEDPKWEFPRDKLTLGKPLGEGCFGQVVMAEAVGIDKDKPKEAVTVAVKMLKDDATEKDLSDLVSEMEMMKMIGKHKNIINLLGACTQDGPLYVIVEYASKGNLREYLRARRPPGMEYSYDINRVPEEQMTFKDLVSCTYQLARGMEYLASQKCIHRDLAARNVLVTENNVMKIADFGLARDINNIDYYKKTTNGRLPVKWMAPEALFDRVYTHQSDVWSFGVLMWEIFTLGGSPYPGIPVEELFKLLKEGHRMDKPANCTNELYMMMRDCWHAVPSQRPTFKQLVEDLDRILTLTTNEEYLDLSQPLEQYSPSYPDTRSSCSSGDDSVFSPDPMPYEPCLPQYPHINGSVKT
UniProt P22607, whole entry, looked up: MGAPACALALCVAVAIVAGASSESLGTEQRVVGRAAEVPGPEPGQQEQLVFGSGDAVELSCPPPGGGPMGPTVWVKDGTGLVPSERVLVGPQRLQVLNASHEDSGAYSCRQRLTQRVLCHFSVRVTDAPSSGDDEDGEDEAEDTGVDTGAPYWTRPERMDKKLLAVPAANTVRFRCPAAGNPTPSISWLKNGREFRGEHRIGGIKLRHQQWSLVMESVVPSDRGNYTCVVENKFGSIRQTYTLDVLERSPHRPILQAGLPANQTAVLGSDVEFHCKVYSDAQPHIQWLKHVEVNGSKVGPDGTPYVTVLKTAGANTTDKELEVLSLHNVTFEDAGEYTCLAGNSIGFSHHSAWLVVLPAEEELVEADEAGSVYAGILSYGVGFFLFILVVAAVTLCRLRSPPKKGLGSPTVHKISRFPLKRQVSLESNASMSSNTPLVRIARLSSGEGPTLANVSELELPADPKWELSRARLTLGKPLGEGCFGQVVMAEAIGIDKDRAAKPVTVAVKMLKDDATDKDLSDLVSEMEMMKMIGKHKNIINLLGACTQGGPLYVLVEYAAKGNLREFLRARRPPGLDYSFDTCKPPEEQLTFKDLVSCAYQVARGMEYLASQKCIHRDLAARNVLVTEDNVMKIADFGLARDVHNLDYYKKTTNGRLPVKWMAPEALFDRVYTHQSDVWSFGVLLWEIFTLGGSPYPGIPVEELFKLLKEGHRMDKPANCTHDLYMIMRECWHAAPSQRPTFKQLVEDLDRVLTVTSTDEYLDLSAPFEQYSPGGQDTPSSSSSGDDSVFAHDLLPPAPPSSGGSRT
UniProt P06241, whole entry, looked up: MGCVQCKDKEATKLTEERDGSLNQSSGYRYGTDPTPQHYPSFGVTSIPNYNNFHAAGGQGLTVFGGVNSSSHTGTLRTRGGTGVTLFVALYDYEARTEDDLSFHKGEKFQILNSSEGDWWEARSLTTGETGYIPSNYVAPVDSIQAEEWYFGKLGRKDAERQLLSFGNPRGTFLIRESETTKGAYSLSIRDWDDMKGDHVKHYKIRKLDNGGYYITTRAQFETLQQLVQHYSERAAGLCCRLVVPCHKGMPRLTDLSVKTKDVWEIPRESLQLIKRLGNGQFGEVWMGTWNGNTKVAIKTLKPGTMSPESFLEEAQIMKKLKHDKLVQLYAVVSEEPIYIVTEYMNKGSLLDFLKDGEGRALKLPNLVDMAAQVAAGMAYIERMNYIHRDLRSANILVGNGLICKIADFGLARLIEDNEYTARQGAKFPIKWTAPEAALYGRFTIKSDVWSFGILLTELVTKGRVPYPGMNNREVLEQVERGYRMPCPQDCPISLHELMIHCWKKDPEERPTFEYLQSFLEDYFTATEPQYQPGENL
UniProt P49840: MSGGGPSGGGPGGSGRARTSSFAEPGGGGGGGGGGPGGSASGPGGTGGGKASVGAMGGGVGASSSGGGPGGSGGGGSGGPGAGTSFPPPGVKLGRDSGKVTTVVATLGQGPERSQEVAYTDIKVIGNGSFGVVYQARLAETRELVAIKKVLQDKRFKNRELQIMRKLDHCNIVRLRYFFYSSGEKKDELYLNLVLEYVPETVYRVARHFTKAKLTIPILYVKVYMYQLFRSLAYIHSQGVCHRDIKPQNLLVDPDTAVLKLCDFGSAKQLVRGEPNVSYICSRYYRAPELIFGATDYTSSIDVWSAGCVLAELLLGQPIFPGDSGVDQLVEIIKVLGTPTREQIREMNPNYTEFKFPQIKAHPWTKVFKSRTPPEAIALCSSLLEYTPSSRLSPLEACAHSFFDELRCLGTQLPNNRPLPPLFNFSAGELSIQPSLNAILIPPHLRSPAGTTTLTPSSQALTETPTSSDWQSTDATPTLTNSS
UniProt P14616: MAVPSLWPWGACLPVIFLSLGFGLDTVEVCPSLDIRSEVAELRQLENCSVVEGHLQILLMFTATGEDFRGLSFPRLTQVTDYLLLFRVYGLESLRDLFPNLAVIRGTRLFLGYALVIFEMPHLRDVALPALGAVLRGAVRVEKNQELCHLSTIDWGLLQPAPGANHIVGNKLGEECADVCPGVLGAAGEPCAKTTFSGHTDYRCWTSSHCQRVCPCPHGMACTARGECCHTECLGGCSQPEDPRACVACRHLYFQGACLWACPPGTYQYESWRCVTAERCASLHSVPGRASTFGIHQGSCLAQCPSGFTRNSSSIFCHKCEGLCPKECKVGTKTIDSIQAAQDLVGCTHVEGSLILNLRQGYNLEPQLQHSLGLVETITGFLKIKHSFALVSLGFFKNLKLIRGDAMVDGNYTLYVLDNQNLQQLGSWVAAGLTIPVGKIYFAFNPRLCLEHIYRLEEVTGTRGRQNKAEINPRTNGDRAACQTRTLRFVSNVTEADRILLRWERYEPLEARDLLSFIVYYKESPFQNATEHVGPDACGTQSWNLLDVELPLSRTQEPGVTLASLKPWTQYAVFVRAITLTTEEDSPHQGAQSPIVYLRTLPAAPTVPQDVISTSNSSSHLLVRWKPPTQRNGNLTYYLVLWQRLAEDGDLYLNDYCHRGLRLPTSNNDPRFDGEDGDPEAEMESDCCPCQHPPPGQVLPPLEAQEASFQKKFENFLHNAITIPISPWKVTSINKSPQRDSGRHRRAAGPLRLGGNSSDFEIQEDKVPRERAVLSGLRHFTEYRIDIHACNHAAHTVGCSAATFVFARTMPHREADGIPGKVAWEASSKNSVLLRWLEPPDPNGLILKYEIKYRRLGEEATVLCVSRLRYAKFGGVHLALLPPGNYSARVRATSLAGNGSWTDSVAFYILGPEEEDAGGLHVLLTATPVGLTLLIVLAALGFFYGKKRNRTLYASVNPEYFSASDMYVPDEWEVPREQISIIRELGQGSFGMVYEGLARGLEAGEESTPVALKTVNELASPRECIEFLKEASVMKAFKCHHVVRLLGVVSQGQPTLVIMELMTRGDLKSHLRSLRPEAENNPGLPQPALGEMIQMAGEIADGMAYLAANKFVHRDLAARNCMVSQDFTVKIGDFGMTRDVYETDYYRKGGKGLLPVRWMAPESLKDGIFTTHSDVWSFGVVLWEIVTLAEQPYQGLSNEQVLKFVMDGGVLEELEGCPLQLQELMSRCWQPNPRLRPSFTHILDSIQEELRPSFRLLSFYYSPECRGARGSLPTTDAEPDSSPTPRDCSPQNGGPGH

Columns and labels:
Test in all cases: kinase-Nluc reporter destabilization hit call (1 = scored as downregulated) (binary); higher = compound decreases kinase abundance
Conditions in all cases: K562; 2-18 h
EGFR = EGFR (UniProt P00533)
EGFR_G719S = EGFR_G719S (UniProt P00533)
EGFR_G719S_T790M = EGFR_G719S_T790M (UniProt P00533)
EGFR_L718V = EGFR_L718V (UniProt P00533)
EGFR_L858R = EGFR_L858R (UniProt P00533)
EGFR_L861Q = EGFR_L861Q (UniProt P00533)
EGFR_T790M = EGFR_T790M (UniProt P00533)
EPHA2 = EPHA2 (UniProt P29317)
ERBB3 = ERBB3 (UniProt P21860)
[1] = target: ERBB4_R711C (clone: ERBB4_mut) (UniProt Q15303)
ERN1 = ERN1 (UniProt O75460)
FGFR1 = FGFR1 (UniProt P11362)
FGFR2 = FGFR2 (UniProt P21802)
FGFR3 = FGFR3 (UniProt P22607)
FGR = FGR (UniProt P09769)
FLT3 = FLT3 (UniProt P36888)
FYN = FYN (UniProt P06241)
GSK3A = GSK3A (UniProt P49840)
HER2 = HER2 (UniProt P04626)
INSRR = INSRR (UniProt P14616)

Row | Compound | kinase-Nluc reporter destabilization hit call (EGFR) | kinase-Nluc reporter destabilization hit call (EGFR_G719S) | kinase-Nluc reporter destabilization hit call (EGFR_G719S_T790M) | kinase-Nluc reporter destabilization hit call (EGFR_L718V) | kinase-Nluc reporter destabilization hit call (EGFR_L858R) | kinase-Nluc reporter destabilization hit call (EGFR_L861Q) | kinase-Nluc reporter destabilization hit call (EGFR_T790M) | kinase-Nluc reporter destabilization hit call (EPHA2) | kinase-Nluc reporter destabilization hit call (ERBB3) | kinase-Nluc reporter destabilization hit call [1] | kinase-Nluc reporter destabilization hit call (ERN1) | kinase-Nluc reporter destabilization hit call (FGFR1) | kinase-Nluc reporter destabilization hit call (FGFR2) | kinase-Nluc reporter destabilization hit call (FGFR3) | kinase-Nluc reporter destabilization hit call (FGR) | kinase-Nluc reporter destabilization hit call (FLT3) | kinase-Nluc reporter destabilization hit call (FYN) | kinase-Nluc reporter destabilization hit call (GSK3A) | kinase-Nluc reporter destabilization hit call (HER2) | kinase-Nluc reporter destabilization hit call (INSRR)
1 | C=C[C@@](C)(/C=C/c1ccc(O)cc1)CCC=C(C)C [Bakuchiol] (10 µM) | inactive: 0 | inactive: 0 | inactive: 0 | inactive: 0 | inactive: 0 | inactive: 0 | inactive: 0 | inactive: 0 | inactive: 0 | inactive: 0 | inactive: 0 | inactive: 0 | inactive: 0 | inactive: 0 | inactive: 0 | inactive: 0 | inactive: 0 | inactive: 0 | inactive: 0 | inactive: 0
2 | O=c1cc(-c2cccc3c2Sc2ccccc2S3)oc(N2CCOCC2)c1 (10 µM) | inactive: 0 | inactive: 0 | inactive: 0 | inactive: 0 | inactive: 0 | inactive: 0 | inactive: 0 | inactive: 0 | inactive: 0 | inactive: 0 | inactive: 0 | inactive: 0 | inactive: 0 | inactive: 0 | inactive: 0 | inactive: 0 | inactive: 0 | inactive: 0 | inactive: 0 | inactive: 0
3 | Cc1cc(C)nc(NS(=O)(=O)c2ccc(NC(=S)NC(=O)COc3ccc(Br)cc3Cl)cc2)n1 (2.5 µM) | inactive: 0 | inactive: 0 | inactive: 0 | inactive: 0 | inactive: 0 | inactive: 0 | inactive: 0 | inactive: 0 | inactive: 0 | inactive: 0 | inactive: 0 | inactive: 0 | inactive: 0 | inactive: 0 | inactive: 0 | inactive: 0 | inactive: 0 | inactive: 0 | inactive: 0 | inactive: 0
4 | N#CC(c1ccnc(OCc2ccc(CN3CCOCC3)cc2)n1)c1nc2ccccc2s1 (stereo not given) [Bentamapimod] (2.5 µM) | inactive: 0 | inactive: 0 | inactive: 0 | inactive: 0 | inactive: 0 | inactive: 0 | inactive: 0 | inactive: 0 | inactive: 0 | inactive: 0 | inactive: 0 | inactive: 0 | inactive: 0 | inactive: 0 | inactive: 0 | inactive: 0 | inactive: 0 | inactive: 0 | inactive: 0 | inactive: 0
5 | COc1cc2ncnc(Nc3ccccc3)c2cc1OC (10 µM) | inactive: 0 | inactive: 0 | inactive: 0 | inactive: 0 | inactive: 0 | inactive: 0 | inactive: 0 | inactive: 0 | inactive: 0 | inactive: 0 | inactive: 0 | inactive: 0 | inactive: 0 | inactive: 0 | inactive: 0 | inactive: 0 | active: 1 | inactive: 0 | inactive: 0 | inactive: 0
6 | COc1cc2ncnc(-n3nc(-c4ccccn4)nc3N)c2cc1OC (10 µM) | inactive: 0 | inactive: 0 | inactive: 0 | inactive: 0 | inactive: 0 | inactive: 0 | inactive: 0 | inactive: 0 | inactive: 0 | inactive: 0 | inactive: 0 | inactive: 0 | inactive: 0 | inactive: 0 | inactive: 0 | inactive: 0 | inactive: 0 | inactive: 0 | inactive: 0 | inactive: 0
7 | CC(C)=CC(=O)O[C@H]1Cc2cc3ccc(=O)oc3cc2OC1(C)C [Decursin] (10 µM) | inactive: 0 | inactive: 0 | inactive: 0 | inactive: 0 | inactive: 0 | inactive: 0 | inactive: 0 | inactive: 0 | inactive: 0 | inactive: 0 | inactive: 0 | inactive: 0 | inactive: 0 | inactive: 0 | inactive: 0 | inactive: 0 | inactive: 0 | inactive: 0 | inactive: 0 | inactive: 0
8 | C=CC(=O)Nc1cccc(CNc2nc(Nc3ccc(N4CCN(C)CC4)cc3OC)ncc2Cl)c1 (10 µM) | inactive: 0 | inactive: 0 | inactive: 0 | inactive: 0 | inactive: 0 | inactive: 0 | inactive: 0 | inactive: 0 | inactive: 0 | inactive: 0 | inactive: 0 | inactive: 0 | inactive: 0 | inactive: 0 | inactive: 0 | inactive: 0 | inactive: 0 | inactive: 0 | inactive: 0 | inactive: 0
9 | CNC(=O)c1ccccc1Oc1nc(Nc2cc(OC)c(OC)c(OC)c2)ncc1Br (2.5 µM) | inactive: 0 | inactive: 0 | inactive: 0 | inactive: 0 | inactive: 0 | inactive: 0 | inactive: 0 | inactive: 0 | inactive: 0 | inactive: 0 | inactive: 0 | inactive: 0 | inactive: 0 | inactive: 0 | inactive: 0 | inactive: 0 | inactive: 0 | inactive: 0 | inactive: 0 | inactive: 0
10 | Nc1ncnc2c1c(-c1ccc(Oc3ccccc3)cc1)nn2C1CCN(CCOCCOCCOc2ccc3c(c2)CN(C2CCC(=O)NC2=O)C3=O)CC1 (stereo not given) (2.5 µM) | inactive: 0 | inactive: 0 | inactive: 0 | inactive: 0 | inactive: 0 | inactive: 0 | inactive: 0 | inactive: 0 | inactive: 0 | inactive: 0 | inactive: 0 | inactive: 0 | inactive: 0 | inactive: 0 | inactive: 0 | inactive: 0 | inactive: 0 | inactive: 0 | inactive: 0 | inactive: 0
11 | O=c1[nH]c(C2CCCN2)nc2c1oc1ccc(Cl)cc12 (stereo not given) [XL413 (hydrochloride)] (10 µM) | inactive: 0 | inactive: 0 | inactive: 0 | inactive: 0 | inactive: 0 | inactive: 0 | inactive: 0 | inactive: 0 | inactive: 0 | inactive: 0 | inactive: 0 | inactive: 0 | inactive: 0 | inactive: 0 | inactive: 0 | inactive: 0 | inactive: 0 | inactive: 0 | inactive: 0 | inactive: 0
12 | Oc1cc(O)c2c(c1)OC1(c3ccc(O)c(O)c3)Oc3cc(O)c4c(c3C2C1O)OC(c1ccc(O)c(O)c1)C(O)C4 (stereo not given) [Procyanidin A1] (10 µM) | inactive: 0 | inactive: 0 | inactive: 0 | inactive: 0 | inactive: 0 | inactive: 0 | inactive: 0 | inactive: 0 | inactive: 0 | inactive: 0 | inactive: 0 | inactive: 0 | inactive: 0 | inactive: 0 | inactive: 0 | inactive: 0 | inactive: 0 | inactive: 0 | inactive: 0 | inactive: 0
13 | O=C(O)c1cccc(CN2C(=O)/C(=C(\c3ccccc3)c3ccc(Cl)cc3)c3ccccc32)c1 (2.5 µM) | inactive: 0 | inactive: 0 | inactive: 0 | inactive: 0 | inactive: 0 | inactive: 0 | inactive: 0 | inactive: 0 | inactive: 0 | inactive: 0 | inactive: 0 | inactive: 0 | inactive: 0 | inactive: 0 | inactive: 0 | inactive: 0 | inactive: 0 | inactive: 0 | inactive: 0 | inactive: 0
14 | C=CC(=O)Nc1cc(Nc2nccc(-n3cc(CN(C)C)c(-c4ccccc4)n3)n2)c(OC)cc1N1CCOCC1 [Lazertinib] (10 µM) | inactive: 0 | inactive: 0 | inactive: 0 | inactive: 0 | inactive: 0 | inactive: 0 | inactive: 0 | inactive: 0 | inactive: 0 | inactive: 0 | inactive: 0 | inactive: 0 | inactive: 0 | inactive: 0 | inactive: 0 | inactive: 0 | inactive: 0 | inactive: 0 | inactive: 0 | inactive: 0
15 | CN(c1ccc(NC(=O)Nc2ccc(OC(F)(F)F)cc2)cc1)c1ccnc(Nc2cccc(S(N)(=O)=O)c2)n1 (2.5 µM) | inactive: 0 | inactive: 0 | inactive: 0 | inactive: 0 | inactive: 0 | inactive: 0 | inactive: 0 | inactive: 0 | inactive: 0 | inactive: 0 | inactive: 0 | inactive: 0 | inactive: 0 | inactive: 0 | inactive: 0 | inactive: 0 | inactive: 0 | inactive: 0 | inactive: 0 | inactive: 0
16 | Cn1cc2cc(C(F)(F)c3nnc4ccc(-c5cnn(C6CC6)c5)nn34)c(F)cc2n1 [Bozitinib] (10 µM) | inactive: 0 | inactive: 0 | inactive: 0 | inactive: 0 | inactive: 0 | inactive: 0 | inactive: 0 | inactive: 0 | inactive: 0 | inactive: 0 | inactive: 0 | inactive: 0 | inactive: 0 | inactive: 0 | inactive: 0 | inactive: 0 | inactive: 0 | inactive: 0 | inactive: 0 | inactive: 0
